PubChem BioAssay AID1259425 – University of Nebraska Medical Center, 2018
Test: 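Seek colon cancer weak points whose silencing resembles KSR1 loss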 (primary screen). Cells: HCT116 human colon cancer cells. Knock-down reagent: siRNA pool against human genes, 50 nM siRNA. Read-out: 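After 50 nM siRNA pool, branched-DNA assay measures six marker transcripts per well, minus blank, normalised to the geometric mean of two housekeeping transcripts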. Scale: BNIP3L mRNA: higher = more BNIP3L transcript after knockdown.
The deposit covers about 14,000 reagents; below is an unselected part. Further read-outs or replicates are left out here. Not stated in the record: the time to read-out.

NUP153
- BNIP3L mRNA, set 1: 0.125

SDF2
- BNIP3L mRNA, set 1: 0.156

NOL7
- BNIP3L mRNA, set 1: 0.205

LMX1B
- BNIP3L mRNA, set 1: 0.116

CALML3
- BNIP3L mRNA, set 1: 0.17

FRYL
- BNIP3L mRNA, set 1: 0.165

EIF4H
- BNIP3L mRNA, set 1: 0.0934

GPR18
- BNIP3L mRNA, set 1: 0.175

CNFN
- BNIP3L mRNA, set 1: 0.202

REPS2
- BNIP3L mRNA, set 1: 0.09

DZIP3
- BNIP3L mRNA, set 1: 0.13

DDX31
- BNIP3L mRNA, set 1: 0.0866

KCNG1
- BNIP3L mRNA, set 1: 0.18

CSRP3
- BNIP3L mRNA, set 1: 0.0724

TAS2R42
- BNIP3L mRNA, set 1: 0.0992

NUP107
- BNIP3L mRNA, set 1: 0.128

FASTKD1
- BNIP3L mRNA, set 1: 0.0898

STX7
- BNIP3L mRNA, set 1: 0.0922

SERPINB6
- BNIP3L mRNA, set 1: 0.0886

LYN
- BNIP3L mRNA, set 1: 0.1

PIP4K2A
- BNIP3L mRNA, set 1: 0.199

WDR75
- BNIP3L mRNA, set 1: 0.221

MRI1
- BNIP3L mRNA, set 1: 0.347

CUL4B
- BNIP3L mRNA, set 1: 0.101

ZNRF3
- BNIP3L mRNA, set 1: 0.173

NPRL3
- BNIP3L mRNA, set 1: 0.0674

ZFP36L1
- BNIP3L mRNA, set 1: 0.172

POLD4
- BNIP3L mRNA, set 1: 0.432

3 neighbouring records from above, for reference:
DDX31
- BNIP3L mRNA, set 1: 0.0866

KCNG1
- BNIP3L mRNA, set 1: 0.18

CSRP3
- BNIP3L mRNA, set 1: 0.0724
